These are yes or no findings as the source states them, for the method shown. Binding seen in cells or lysates may run through a third protein. Some binding calls cover weakened binding; strength is not graded here. Tags and fused reporters may be left off the sequences shown. Each block holds one molecule with its values, some of them ahead of it.
Assays:
[1] = biological target: T1, Drosophila histone deacetylase 3, Flag-tagged (HDAC3-Flag) (Drosophila) (UniProt Q7KTS4); experiment: co-IP; Kc cells with CtBP-V5 and HDAC3-Flag lysed in NP-40 lysis buffer with protease inhibitors; protein A + G agarose beads and antibody to the tag, overnight at 4 °C; reciprocal precipitation; detection by Western blot
T1 sequence: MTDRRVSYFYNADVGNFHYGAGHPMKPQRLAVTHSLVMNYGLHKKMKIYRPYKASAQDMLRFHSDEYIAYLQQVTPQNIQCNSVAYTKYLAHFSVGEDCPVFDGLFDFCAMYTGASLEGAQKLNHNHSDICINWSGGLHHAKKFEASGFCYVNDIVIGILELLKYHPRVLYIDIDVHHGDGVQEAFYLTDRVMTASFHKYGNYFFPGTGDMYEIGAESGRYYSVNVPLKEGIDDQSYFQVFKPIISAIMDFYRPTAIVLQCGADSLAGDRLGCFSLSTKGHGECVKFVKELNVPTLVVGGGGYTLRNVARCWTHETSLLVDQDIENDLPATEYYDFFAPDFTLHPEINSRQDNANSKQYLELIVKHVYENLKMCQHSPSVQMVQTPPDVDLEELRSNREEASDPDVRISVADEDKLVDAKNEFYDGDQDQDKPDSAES

Sequences of proteins named here, by UniProt entry; tags and fusion partners are left off.
UniProt O46036: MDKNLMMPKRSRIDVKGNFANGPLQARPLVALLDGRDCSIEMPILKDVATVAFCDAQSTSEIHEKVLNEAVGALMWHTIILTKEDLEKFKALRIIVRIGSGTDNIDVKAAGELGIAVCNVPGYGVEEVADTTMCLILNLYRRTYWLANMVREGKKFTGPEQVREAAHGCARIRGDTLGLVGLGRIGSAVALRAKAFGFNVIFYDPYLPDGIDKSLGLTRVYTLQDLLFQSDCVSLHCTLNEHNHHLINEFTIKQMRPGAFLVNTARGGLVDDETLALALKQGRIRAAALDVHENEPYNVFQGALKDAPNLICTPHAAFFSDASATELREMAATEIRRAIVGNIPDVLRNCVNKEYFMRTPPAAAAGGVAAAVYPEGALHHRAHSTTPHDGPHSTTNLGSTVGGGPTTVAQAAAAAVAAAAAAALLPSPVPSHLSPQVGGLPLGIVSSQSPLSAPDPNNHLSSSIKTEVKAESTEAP

[2] = biological target: Drosophila C-terminal binding protein, V5-tagged (CtBP-V5) (Drosophila) (UniProt O46036); experiment: as above

binding [1]: binds
Molecule: Drosophila C-terminal binding protein, V5-tagged (CtBP-V5) (from UniProt O46036 1-476)

binding [2]: binds
B1: Drosophila histone deacetylase 3, Flag-tagged (HDAC3-Flag) (enzyme, UniProt Q7KTS4 1-438)
chain: T1 sequence

— PMC12728225
